Screening data, single-dose tests

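Phenotypic screen: M. tuberculosis growth, cholesterol and DPPC medium, 4 days; the read-out is not stated. Compounds at 500 µM. The record gives no direction; compounds that gave an IC50 in retests scored well above the rest, so higher reads as more growth inhibition. Of about 18,000 compounds tested this way, about 900 (5%) reached 50% or more in at least one test.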

Results are given as percent effect.
The controls that fix the scale are not given in the record; negative values are as filed.
This is an unselected part of the compounds tested.

compound	Percent Effect
C1=C(CCNc2ncccn2)CCOC1	-1.27
COCc1csc(CN)c1	1.75
CCOC(=O)CCC(=O)c1ccc2c(c1)OCCO2	78.94
COc1c(Br)cccc1CN	20.4
CCS(=O)(=O)N(C)CCCNc1ccc(C)c(C#N)n1	64.2
CC(C#N)CNC(=O)Cc1ccccc1O (stereo unspecified)	-3.71
c1ccc(-c2n[nH]c(C3CCCNC3)n2)cc1 (stereo unspecified)	4.486
Cc1noc(NC(=O)C(C)OCC2CC2)n1 (stereo unspecified)	-5.124
CCn1cc(NC(=O)NC2CC(=O)N(C3CC3)C2)cn1 (stereo unspecified)	-6.998
CCC(C)Oc1cc(C(=O)NCC2(O)CCC2)ccn1 (stereo unspecified)	60.22
CCNC(=O)c1cccc(CN)c1	-2.562
Cc1cc(C)nc(NC(=O)c2cc[nH]n2)c1	3.952
CC(C(=O)Nc1ccc(C(N)=O)cc1)n1cccn1 (stereo unspecified)	-1.139
CN(C)C(=O)CNC(CO)c1ccc(Cl)c(F)c1 (stereo unspecified)	-16.18
Cc1ccc(C(C)NC(=O)Cn2ccccc2=O)o1 (stereo unspecified)	-0.7983
CCc1nc(C2CCCN2)no1 (stereo unspecified)	-12.79
Cc1cnccc1CN	-11.54
CC(c1nc(C(C)(C)C)no1)N1CCN(CCO)CC1 (stereo unspecified)	-3.677
CNC(=O)CCN1CCC(=Cc2ccccc2)CC1	66.54
Cc1ccccc1-n1c(C)nnc1SCCC(N)=O	0.8667
COC(=O)Cn1cc(I)cc(C)c1=O	19.04
Cc1cccc(C)c1NC(=O)CN1CCC(O)CC1	25.43
CCOCC1CCN(C(=O)c2ccc(F)c(O)c2)CC1	29.42
NC(=O)C1CCN(CC(=O)NCC(F)(F)F)CC1	0.1968
CCC(=O)N1CCCc2cc(NS(C)(=O)=O)ccc21	4.381
O=C1CCC(=O)N1Cc1cc(F)cc2cccnc12	-3.888
CC(=O)N(C)CC(=O)Nc1ccccc1N1CCCC1	-5.268
CCOc1ncccc1C(=O)Nc1nnc[nH]1	-2.044
COC(=O)[C@@H]1C[C@@H](O)CN1Cc1cn2ccccc2n1	-5.016
CC(=O)c1c[nH]c(C(=O)NCc2ccccc2O)c1	4.155
CN(CCC#N)C(=O)CN1C(=O)c2ccccc2C1=O	-8.831
CC(=O)NCCN1CCCC1	-15.41
CCC(C)N(C)CCNC(=O)NC1CC1 (stereo unspecified)	-17.13
O=C(Nc1ccccc1I)C1COCCO1 (stereo unspecified)	-1.924
CSc1nnc(N2CCOCC2)n1CC(C)C	-10.91
O=C1N(CC2CC2)CCCC1(O)CN1CCSCC1 (stereo unspecified)	-3.832
C[C@@]1(O)CCN(C(=O)CN)C[C@@H]1Cc1ccccc1	62.35
Cc1cc(NC(=O)NCCN(C)C)no1	9.653
CC(=O)Nc1ccc(F)c(C(=O)OCC2CCCO2)c1 (stereo unspecified)	25.35
Cn1cc(NC(=O)CC2C=CCC2)cc(Br)c1=O (stereo unspecified)	-16.73
CS(=O)(=O)Nc1ccc(F)c(F)c1	16.13
O=S(=O)(c1ccc(O)cc1)N1CCCCC1	40.77
Cc1cc(C(=O)N2CCCNCC2)c(F)cc1F	17.99
CCO[C@H]1CN(CCn2cc(Cl)cn2)C[C@@H]1O	8.911
C[C@@H](O)CNCC1=Cc2ccccc2OC1	5.82
Cc1n[nH]cc1CNCCNc1ncc(Cl)cc1Cl	28.29
CN(C)C(=O)C(CO)c1ccccc1 (stereo unspecified)	-11.77
c1ccc2c(N3CCNCC3)cncc2c1	77.68
Cc1cccnc1NCCNC(=O)C1=NNC(=O)CC1	6.341
CCCOc1ccc(NS(=O)(=O)N(C)C)cc1Cl	90.6
CN1CCN(CCCN(C)Cc2ccncc2)CC1	-0.2657
CCOc1ncccc1C(=O)NCC(C)N1CCCC1 (stereo unspecified)	4.168
CN(CC(N)=O)C(=O)Cc1ccc(OC(F)(F)F)cc1	7.956
NC(=O)CN1CCC(C(O)c2ccccc2)CC1 (stereo unspecified)	-0.6185
CN(C)Cc1nnc(-c2ccccc2)o1	31.18
Cc1n[nH]c(C)c1NC(=O)CNC(C)C1CCOCC1 (stereo unspecified)	-3.978
CN(C)Cc1ccccc1C(=O)N[C@@H]1CCOC[C@H]1O	7.901
N#CCCCS(=O)(=O)NC1(CN)CCCC1	-7.072
NC(=O)c1ccc(CNC(=O)CC2C=CCC2)cc1 (stereo unspecified)	-11.1
COc1ccc(S(=O)(=O)Nc2cc(C)ccn2)cc1	-13.82
Cc1ccc(CCCC(=O)Nc2nnc[nH]2)cc1	-17.39
CC(=O)Nc1nc(COc2ccc(C)cn2)cs1	82.97
CCCNC1CCCc2cccnc21 (stereo unspecified)	-3.428
COCCNC(=O)CSc1nnc2n1CCCCC2	1.958
Cc1ccc(NC(=O)C2CCCN2)nc1 (stereo unspecified)	21.79
O=C(c1cc(-c2ccccc2)[nH]n1)N1CCOCC1	11.95
CCOCC(=O)Nc1ccc(S(C)(=O)=O)cc1C	-15.66
O=C(NCC1CCS(=O)(=O)C1)c1cccc2cn[nH]c12 (stereo unspecified)	8.294
N#CC1CN(C(=O)c2c(F)cccc2Br)CCO1 (stereo unspecified)	17.39
CCn1cnnc1CNC(=O)N1CCCN(C)CC1	2.232
COc1ccc(C2CNCCO2)cc1 (stereo unspecified)	6.178
OCCCC(Nc1ccccn1)c1ccccc1 (stereo unspecified)	73.07
N#Cc1ccc(OCCN2CCCS2(=O)=O)cc1	8.584
O=C1CNc2ccncc2N1	4.508
CCC(CC)NC(=O)Nc1ccccc1CC(=O)NC	2.837
Clc1ccnc(N2CCCC2)c1	0.804
COCC(=O)Nc1ccc(C(=O)c2nccn2C)cc1	19.11
Nc1noc(CCNC(=O)c2ccc(Cl)cn2)n1	47.34
CCOC1CCCN(CCC(=O)NC)C1 (stereo unspecified)	9.516
COc1ccnc(N(CCS(C)(=O)=O)C2CC2)n1	4.802
CCC1(CC)CN(C(=O)NCCC(C)C)CCS1(=O)=O	55.74
COCC(C)(NC(=O)CCc1ccccc1Cl)C(N)=O (stereo unspecified)	13.76
O=C1NCCN(C(=O)c2ccc(Br)o2)C1c1cccs1 (stereo unspecified)	15.81
COC(=O)CCN1CCN(CC2CCCC2)C(=O)C1	38.66
C[C@H](CO)N(CCCC#N)Cc1ccccc1	-11.25
CC(C)(CO)C(N)c1ccccc1 (stereo unspecified)	8.642
Cn1c(CN)nc2cc(Cl)ccc21	38.84
COc1cccc(CNCCCN2CCCC2=O)c1	3.106
CC(C)(C)Sc1cc(CNC(=O)C2CCCN2)ccn1 (stereo unspecified)	-11.74
CCNC(=O)N[C@@H]1CNC[C@H]1OC	1.936

For reference, 5 entries once more:

- CC(C(=O)Nc1ccc(C(N)=O)cc1)n1cccn1 (stereo unspecified) | -1.139%
- CC(=O)NCCN1CCCC1 | -15.41%
- Cc1cccc(C)c1NC(=O)CN1CCC(O)CC1 | 25.43%
- C[C@@H](O)CNCC1=Cc2ccccc2OC1 | 5.82%
- NC(=O)c1ccc(CNC(=O)CC2C=CCC2)cc1 (stereo unspecified) | -11.1%

The values are deposited in ChEMBL (CHEMBL3988442, “University of Dundee, Small-Polar-MMV Screening Library” (2021)).